Experimental data published in the supplement of paper PMC10331698.
± gives the standard deviation of the averaged measurements. Small differences around the control level are noise.

What was measured:
Assay in all cases: level (log10 ratio to DMSO vehicle control); higher = higher biomarker level / cell amount than vehicle control
[1] = compound: C=C(C)C(=O)OCC(F)(F)C(F)(F)C(F)(F)C(F)(F)C(F)(F)C(F)(F)C(F)(F)F; settings: in DMSO
Method: (§1)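 BioMAP Diversity Plus panel of 12 human primary cell co-culture systems (3C, 4H, LPS, SAg, BT, BF4T, BE3C, CASM3C, HDF3CGF, KF3CT, MyoF, Mphg). Compounds were added 1 h before stimulation and left for 24 h (MyoF 48 h; BT 72 h for soluble read-outs or 6 d for IgG). Biomarkers were read by ELISA, cytotoxicity by SRB, PBMC viability and proliferation by Alamar Blue. Each well value was divided by the mean of 8 DMSO control wells on the same plate and log10 transformed; duplicate blinded samples were tested at 4 concentrations.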

[2] = compound: C=CC(=O)OCC(F)(F)C(F)(F)C(F)(F)C(F)(F)C(F)(F)C(F)(F)C(F)(F)F [1H,1H-Perfluorooctyl acrylate]; settings: 2200 nM; in DMSO
Method: as §1

[3] = compound: C=CC(F)(F)C(F)(F)C(F)(F)C(F)(F)C(F)(F)C(F)(F)C(F)(F)C(F)(F)C=C [1,8-Divinylperfluorooctane]; settings: in DMSO
Method: as §1

[4] = compound: COC(=O)C(F)(F)C(F)(F)OC(F)(C(F)(F)F)C(F)(F)OC(F)=C(F)F [Methyl perfluoro(3-(1-ethenyloxypropan-2-yloxy)propanoate)]; settings: in DMSO
Method: as §1

[5] = compound: CO[Si](C)(CCC(F)(F)C(F)(F)C(F)(F)C(F)(F)C(F)(F)C(F)(F)F)OC [Dimethoxymethyl((perfluorohexyl)ethyl)silane]; settings: in DMSO
Method: as §1

[6] = compound: FC(F)(F)C(F)(F)C(F)(F)CC1CO1 [1H,1H-Heptafluorobutyl epoxide]; settings: 2200 nM; in DMSO
Method: as §1

Heptafluorobutyl iodide = compound: FC(F)(F)C(F)(F)C(F)(F)CI [Heptafluorobutyl iodide]; settings: 2200 nM; in DMSO
Method: as §1

[7] = compound: NC(=O)C(F)(F)C(F)(F)C(F)(F)C(F)F; settings: in DMSO
Method: as §1

Pentafluoropropionamide = compound: NC(=O)C(F)(F)C(F)(F)F [Pentafluoropropionamide]; settings: 2200 nM; in DMSO
Method: as §1

[8] = compound: NS(=O)(=O)C(F)(F)C(F)(F)C(F)(F)C(F)(F)C(F)(F)C(F)(F)C(F)(F)C(F)(F)F [Perfluorooctanesulfonamide]; settings: in DMSO
Method: as §1

[9] = compound: O=C(O)C(F)(F)C(F)(F)C(F)F [4H-Perfluorobutanoic acid]; settings: in DMSO
Method: as §1

[10] = compound: O=P(O)(O)CCC(F)(F)C(F)(F)C(F)(F)C(F)(F)C(F)(F)C(F)(F)F [2-(Perfluorohexyl)ethylphosphonic acid]; settings: 2200 nM; in DMSO
Method: as §1

[11] = compound: O=S(=O)(F)C(F)(F)C(F)(F)C(F)(F)C(F)(F)C(F)(F)C(F)(F)C(F)(F)C(F)(F)F [Perfluorooctanesulfonyl fluoride]; settings: 2200 nM; in DMSO
Method: as §1

[12] = compound: O=S(=O)(O)C(F)(F)C(F)(F)C(F)(F)C(F)(F)C(F)(F)C(F)(F)C(F)(F)C(F)(F)F [Perfluorooctanesulfonic acid]; settings: 2200 nM; in DMSO
Method: as §1

[13] = compound: O=S(=O)(O)C(F)(F)C(F)(F)C(F)(F)C(F)(F)C(F)(F)C(F)(F)C(F)(F)C(F)(F)F [Potassium perfluorooctanesulfonate]; settings: 2200 nM; in DMSO
Method: as §1

[14] = compound: O=S(=O)(OCC(F)(F)F)C(F)(F)C(F)(F)C(F)(F)C(F)(F)F [2,2,2-Trifluoroethyl perfluorobutanesulfonate]; settings: 2200 nM; in DMSO
Method: as §1

[15] = compound: OCC(F)(F)C(F)(F)C(F)(F)C(F)(F)C(F)(F)C(F)F [1H,1H,7H-Dodecafluoro-1-heptanol]; settings: 2200 nM; in DMSO
Method: as §1

[16] = compound: OCCCCC(F)(F)C(F)(F)C(F)(F)C(F)(F)F [4:4 Fluorotelomer alcohol]; settings: 2200 nM; in DMSO
Method: as §1

Test System | level (log10) ([1]; 740 nM) | level (log10) ([1]; 2200 nM) | level (log10) [2] | level (log10) ([3]; 740 nM) | level (log10) ([3]; 2200 nM) | level (log10) ([4]; 740 nM) | level (log10) ([4]; 2200 nM) | level (log10) ([5]; 740 nM) | level (log10) ([5]; 2200 nM) | level (log10) [6] | level (log10) (Heptafluorobutyl iodide) | level (log10) ([7]; 2200 nM) | level (log10) ([7]; 6700 nM) | level (log10) ([7]; 20000 nM) | level (log10) ([7]; 60000 nM) | level (log10) (Pentafluoropropionamide) | level (log10) ([8]; 2200 nM) | level (log10) ([8]; 6700 nM) | level (log10) ([8]; 20000 nM) | level (log10) ([9]; 2200 nM) | level (log10) ([9]; 6700 nM) | level (log10) ([9]; 20000 nM) | level (log10) ([9]; 60000 nM) | level (log10) [10] | level (log10) [11] | level (log10) [12] | level (log10) [13] | level (log10) [14] | level (log10) [15] | level (log10) [16]
3C:CD87/uPAR | -0.022 ± 0.027 | -0.026 ± 0.027 | 0.003 ± 0.02 | 0.004 ± 0.038 | -0.023 ± 0.072 | -0.022 ± 0.03 | 0.002 ± 0.016 | -0.0175 ± 0.018 | -0.011 ± 0.02 | -0.018 ± 0.054 | -0.04 ± 0.02 | -0.027 ± 0.016 | -0.0235 ± 0.036 | -0.022 ± 0.03 | -0.023 ± 0.027 | -0.0345 ± 0.029 | 0.015 ± 0.0014 | 0.006 ± 0.0099 | -0.0425 ± 0.016 | 0.003 ± 0.017 | -0.0265 ± 0.0092 | -0.0065 ± 0.0092 | 0.0095 ± 0.0064 | 0.024 ± 0.0057 | 0.0015 ± 0.0064 | 0.036 ± 0.035 | 0.007 ± 0.0057 | -0.0035 ± 0.013 | 0.003 ± 0.016 | -0.0005 ± 0.053
KF3CT:CD54/ICAM-1 | -0.0005 ± 0.013 | -0.016 ± 0.0099 | 0 ± 0.0028 | -0.0125 ± 0.05 | -0.0155 ± 0.012 | -0.005 ± 0.011 | -0.009 ± 0.0042 | -0.022 ± 0.016 | 0.021 ± 0.0071 | -0.0005 ± 0.0021 | -0.015 | 0 ± 0.017 | -0.0075 ± 0.011 | -0.0255 ± 0.005 | -0.008 ± 0.0014 | -0.011 ± 0.037 | -0.0135 ± 0.013 | 0.0155 ± 0.023 | -0.0235 ± 0.028 | -0.0055 ± 0.0035 | 0.005 ± 0.0028 | -0.0115 ± 0.0035 | -0.006 ± 0.011 | -0.006 | 0.006 ± 0.014 | 0.002 ± 0.021 | -0.0135 ± 0.0021 | 0.037 ± 0.0042 | 0.0095 ± 0.028 | 0.0095 ± 0.005
3C:CXCL8/IL-8 | 0.0255 ± 0.067 | 0.002 ± 0.064 | 0.005 ± 0.024 | 0.0145 ± 0.023 | -0.017 ± 0.0028 | 0.0135 ± 0.063 | -0.0245 ± 0.021 | 0.003 ± 0.0099 | -0.011 ± 0.0071 | -0.012 ± 0.05 | -0.02 ± 0.034 | 0.0165 ± 0.035 | 0.0025 ± 0.016 | -0.007 ± 0.0042 | 0.012 ± 0.0099 | 0.0125 ± 0.036 | 0.0275 ± 0.0092 | 0.012 ± 0.018 | 0.0635 ± 0.0064 | 0.02 ± 0.04 | -0.0015 ± 0.054 | 0.009 ± 0.0071 | 0.0395 ± 0.042 | 0.0135 ± 0.09 | 0 ± 0.02 | 0.016 ± 0.0042 | 0.032 ± 0.067 | -0.006 ± 0.014 | 0.0175 ± 0.057 | 0.02 ± 0.044
HDF3CGF:Proliferation 72hr | -0.0115 ± 0.032 | 0.001 ± 0.068 | 0.0065 ± 0.03 | -0.034 ± 0.083 | 0.019 ± 0.1 | 0.0105 ± 0.032 | 0.057 ± 0.016 | -0.0335 ± 0.1 | -0.0025 ± 0.066 | -0.102 ± 0.013 | -0.026 ± 0.023 | -0.0025 ± 0.067 | -0.0005 ± 0.046 | -0.0245 ± 0.06 | -0.0205 ± 0.037 | -0.0625 ± 0.026 | -0.019 ± 0.023 | 0.0105 ± 0.036 | -0.58 ± 0.15 | -0.0005 ± 0.029 | -0.0415 ± 0.012 | -0.03 ± 0.0042 | 0.066 ± 0.02 | -0.0345 ± 0.0035 | -0.007 ± 0.024 | 0.0385 ± 0.12 | 0.0575 ± 0.074 | -0.02 ± 0.031 | -0.065 ± 0.062 | 0.0115 ± 0.0078
HDF3CGF:CCL2/MCP-1 | -0.0105 ± 0.005 | -0.022 ± 0.013 | -0.0315 ± 0.039 | -0.025 ± 0.025 | -0.018 ± 0.02 | -0.0035 ± 0.005 | 0.024 ± 0.0028 | -0.0135 ± 0.013 | -0.0255 ± 0.026 | -0.0125 ± 0.044 | -0.0035 ± 0.013 | 0.0165 ± 0.069 | -0.017 ± 0.054 | -0.004 ± 0.04 | 0.0095 ± 0.028 | -0.01 ± 0.0028 | 0.0145 ± 0.021 | -0.0105 ± 0.0064 | -0.567 ± 0.14 | 0.0005 ± 0.0021 | -0.0385 ± 0.021 | -0.018 ± 0.051 | 0.049 ± 0.0071 | -0.0325 ± 0.033 | -0.0025 ± 0.044 | 0.0075 ± 0.018 | 0.0105 ± 0.018 | -0.007 ± 0.034 | 0.039 ± 0.05 | -0.006
HDF3CGF:Collagen III | 0.011 ± 0.0085 | 0 ± 0.016 | 0.059 ± 0.041 | 0.003 ± 0.037 | 0.0145 ± 0.013 | 0.016 ± 0.041 | -0.0295 ± 0.15 | -0.013 ± 0.017 | -0.001 ± 0.02 | -0.026 ± 0.082 | -0.077 ± 0.031 | -0.009 ± 0.014 | -0.011 ± 0.0042 | -0.0155 ± 0.012 | -0.0165 ± 0.00071 | 0.0025 ± 0.028 | -0.003 ± 0.052 | -0.0345 ± 0.012 | -0.449 ± 0.019 | -0.0155 ± 0.019 | -0.005 ± 0.088 | 0.03 ± 0.054 | 0.072 ± 0.042 | 0.03 ± 0.055 | 0.0465 ± 0.0064 | -0.0195 ± 0.05 | -0.021 ± 0.0028 | 0.0045 ± 0.0078 | 0.0125 ± 0.052 | 0.0055 ± 0.018
